{"source": "patent US20220378608A1", "about": "“DEVICES, SYSTEMS, AND METHODS FOR MODULATING TISSUE TEMPERATURE” (DUKE UNIVERSITY, priority 2019, published 2022)", "assay_in_all_cases": "TMZ chemotherapy with hypothermia, growth by well area coverage", "type_in_all_cases": "cell-based, human", "conditions_in_all_cases": "TMZ at 25° C. vs 37° C. for 3 days, then wash and growth at 37° C.", "key": {"LN-229 cells": {"tested_on": "LN-229 cells"}, "U-87MG": {"tested_on": "U-87MG"}, "T98G cells": {"tested_on": "T98G cells"}}, "note": "“Also recorded” adds a separate entry of the source. At least one compound was matched to its structure with a doubt left."}
{"smiles": "Cn1nnc2c(C(N)=O)ncn2c1=O", "note": "[TMZ, temozolomide]", "values": [{"measurement": "effect of TMZ on cell division under hypothermia", "setting": "LN-229 cells", "value": "reduced cell division more significantly than under 37 °C"}, {"measurement": "effect of TMZ on growth under hypothermia", "setting": "U-87MG", "value": "mildly affected; also recorded: little to no improvement"}, {"measurement": "effect of hypothermia with TMZ", "setting": "T98G cells", "value": "either had little effect or was synergistic"}]}
